Publication PMC9254885
Numbering of substitutions follows the chain as printed. Results are given in words; binding and its absence hold for the method and conditions named. In cells and extracts the contact can be indirect. Some entries that bind do so weakly or less than the wild type. Sequences can lack the tags named with a protein.

Assays:
Assay in all cases: co-IP; FLAG-tagged wild-type, D177N or Y891F OGA overexpressed in HeLa cells; co-IP with anti-CPS1 and anti-FLAG antibody; CPS1 endogenous
[1] = biological target: T1, FLAG-tagged OGA D177N mutant (UniProt O60502)
T1 sequence: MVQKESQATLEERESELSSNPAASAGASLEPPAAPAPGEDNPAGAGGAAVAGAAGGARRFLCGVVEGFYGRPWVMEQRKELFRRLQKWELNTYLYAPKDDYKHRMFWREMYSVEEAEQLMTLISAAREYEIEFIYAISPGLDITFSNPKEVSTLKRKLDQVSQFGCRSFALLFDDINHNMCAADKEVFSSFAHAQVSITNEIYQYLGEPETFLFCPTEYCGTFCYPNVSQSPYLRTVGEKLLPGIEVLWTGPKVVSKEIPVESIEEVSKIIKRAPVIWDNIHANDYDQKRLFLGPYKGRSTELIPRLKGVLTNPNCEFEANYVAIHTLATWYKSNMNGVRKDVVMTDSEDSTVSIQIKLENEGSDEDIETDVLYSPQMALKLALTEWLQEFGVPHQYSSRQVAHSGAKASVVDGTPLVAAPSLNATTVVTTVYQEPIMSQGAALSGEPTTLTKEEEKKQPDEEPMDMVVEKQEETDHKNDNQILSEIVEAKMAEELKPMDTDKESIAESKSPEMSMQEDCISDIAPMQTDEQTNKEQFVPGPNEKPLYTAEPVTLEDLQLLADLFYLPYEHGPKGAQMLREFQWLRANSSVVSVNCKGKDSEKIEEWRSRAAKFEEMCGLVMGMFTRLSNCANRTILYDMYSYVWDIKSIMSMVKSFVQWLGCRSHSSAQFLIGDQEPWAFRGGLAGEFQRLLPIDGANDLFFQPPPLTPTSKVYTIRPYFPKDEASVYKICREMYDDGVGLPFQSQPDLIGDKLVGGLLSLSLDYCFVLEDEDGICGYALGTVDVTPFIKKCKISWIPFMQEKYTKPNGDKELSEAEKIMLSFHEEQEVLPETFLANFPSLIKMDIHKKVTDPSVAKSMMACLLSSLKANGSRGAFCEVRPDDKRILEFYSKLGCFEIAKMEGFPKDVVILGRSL

[2] = biological target: T2, FLAG-tagged OGA Y891F mutant (UniProt O60502)
T2 sequence: T1 sequence with N177D, Y891F

[3] = biological target: T3, FLAG-tagged wild-type OGA (O-GlcNAcase) (UniProt O60502)
T3 sequence: T1 sequence with N177D

Measured: binding

B1: endogenous CPS1 (HeLa cells) (enzyme, UniProt P31327 39-1500)
chain: LSVKAQTAHIVLEDGTKMKGYSFGHPSSVAGEVVFNTGLGGYPEAITDPAYKGQILTMANPIIGNGGAPDTTALDELGLSKYLESNGIKVSGLLVLDYSKDYNHWLATKSLGQWLQEEKVPAIYGVDTRMLTKIIRDKGTMLGKIEFEGQPVDFVDPNKQNLIAEVSTKDVKVYGKGNPTKVVAVDCGIKNNVIRLLVKRGAEVHLVPWNHDFTKMEYDGILIAGGPGNPALAEPLIQNVRKILESDRKEPLFGISTGNLITGLAAGAKTYKMSMANRGQNQPVLNITNKQAFITAQNHGYALDNTLPAGWKPLFVNVNDQTNEGIMHESKPFFAVQFHPEVTPGPIDTEYLFDSFFSLIKKGKATTITSVLPKPALVASRVEVSKVLILGSGGLSIGQAGEFDYSGSQAVKAMKEENVKTVLMNPNIASVQTNEVGLKQADTVYFLPITPQFVTEVIKAEQPDGLILGMGGQTALNCGVELFKRGVLKEYGVKVLGTSVESIMATEDRQLFSDKLNEINEKIAPSFAVESIEDALKAADTIGYPVMIRSAYALGGLGSGICPNRETLMDLSTKAFAMTNQILVEKSVTGWKEIEYEVVRDADDNCVTVCNMENVDAMGVHTGDSVVVAPAQTLSNAEFQMLRRTSINVVRHLGIVGECNIQFALHPTSMEYCIIEVNARLSRSSALASKATGYPLAFIAAKIALGIPLPEIKNVVSGKTSACFEPSLDYMVTKIPRWDLDRFHGTSSRIGSSMKSVGEVMAIGRTFEESFQKALRMCHPSIEGFTPRLPMNKEWPSNLDLRKELSEPSSTRIYAIAKAIDDNMSLDEIEKLTYIDKWFLYKMRDILNMEKTLKGLNSESMTEETLKRAKEIGFSDKQISKCLGLTEAQTRELRLKKNIHPWVKQIDTLAAEYPSVTNYLYVTYNGQEHDVNFDDHGMMVLGCGPYHIGSSVEFDWCAVSSIRTLRQLGKKTVVVNCNPETVSTDFDECDKLYFEELSLERILDIYHQEACGGCIISVGGQIPNNLAVPLYKNGVKIMGTSPLQIDRAEDRSIFSAVLDELKVAQAPWKAVNTLNEALEFAKSVDYPCLLRPSYVLSGSAMNVVFSEDEMKKFLEEATRVSQEHPVVLTKFVEGAREVEMDAVGKDGRVISHAISEHVEDAGVHSGDATLMLPTQTISQGAIEKVKDATRKIAKAFAISGPFNVQFLVKGNDVLVIECNLRASRSFPFVSKTLGVDFIDVATKVMIGENVDEKHLPTLDHPIIPADYVAIKAPMFSWPRLRDADPILRCEMASTGEVACFGEGIHTAFLKAMLSTGFKIPQKGILIGIQQSFRPRFLGVAEQLHNEGFKLFATEATSDWLNANNVPATPVAWPSQEGQNPSLSSIRKLIRDGSIDLVINLPNNNTKFVHDNYVIRRTAVDSGIPLLTNFQVTKLFAEAVQKSRKVDSKSLFHYRQYSAGKAA
binds: all assays above
